Test results as given in paper PMC8325689.

What was measured:
[1] = molecular target: FLAG-FBXO16 C-terminal deletion mutant (human (gene amplified from HEK293T cells)); assay: co-IP; lysates of HEK293T cells expressing FLAG-FBXO16 (stable or transient) or its deletion mutants, FLAG M2 beads 4 h at 4 °C, IP buffer (150 mM NaCl, 20 mM Tris-HCl pH 8.0, 0.5 mM EDTA, 0.5% NP-40), eluted with 3xFLAG peptide, blot for endogenous hnRNPL
[2] = molecular target: FLAG-FBXO16 N-terminal deletion mutant (human (gene amplified from HEK293T cells)); assay: as above
[3] = molecular target: FLAG-hnRNPL ΔRRM3 mutant (human (gene amplified from HEK293T cells)) (UniProt P14866); assay: co-IP; lysates of HEK293T cells transiently expressing FLAG-hnRNPL (1-583) or its deletion mutants, FLAG M2 beads, blot with anti-FBXO16 for endogenous FBXO16

B1: heterogeneous nuclear ribonucleoprotein L (hnRNPL), endogenous (protein, UniProt P14866 1-589)
chain: MSRRLLPRAEKRRRRLEQRQQPDEQRRRSGAMVKMAAAGGGGGGGRYYGGGSEGGRAPKRLKTDNAGDQHGGGGGGGGGAGAAGGGGGGENYDDPHKTPASPVVHIRGLIDGVVEADLVEALQEFGPISYVVVMPKKRQALVEFEDVLGACNAVNYAADNQIYIAGHPAFVNYSTSQKISRPGDSDDSRSVNSVLLFTILNPIYSITTDVLYTICNPCGPVQRIVIFRKNGVQAMVEFDSVQSAQRAKASLNGADIYSGCCTLKIEYAKPTRLNVFKNDQDTWDYTNPNLSGQGDPGSNPNKRQRQPPLLGDHPAEYGGPHGGYHSHYHDEGYGPPPPHYEGRRMGPPVGGHRRGPSRYGPQYGHPPPPPPPPEYGPHADSPVLMVYGLDQSKMNCDRVFNVFCLYGNVEKVKFMKSKPGAAMVEMADGYAVDRAITHLNNNFMFGQKLNVCVSKQPAIMPGQSYGLEDGSCSYKDFSESRNNRFSTPEQAAKNRIQHPSNVLHFFNAPLEVTEENFFEICDELGVKRPSSVKVFSGKSERSSSGLLEWESKSDALETLGFLNHYQMKNPNGPYPYTLKLCFSTAQHAS
- binding [1]: no binding
- binding [2]: binds

B2: FBXO16, endogenous (protein, UniProt Q8IX29 1-292)
chain: MMAFAPPKNTDGPKMQTKMSTWTPLNHQLLNDRVFEERRALLGKWFDKWTDSQRRRILTGLLERCSLSQQKFCCRKLQEKIPAEALDFTTKLPRVLSLYIFSFLDPRSLCRCAQVCWHWKNLAELDQLWMLKCLRFNWYINFSPTPFEQGIWKKHYIQMVKELHITKPKTPPKDGFVIADVQLVTSNSPEEKQSPLSAFRSSSSLRKKNNSGEKALPPWRSSDKHPTDIIRFNYLDNRDPMETVQQGRRKRNQMTPDFSRQSHDKKNKLQDRTRLRKAQSMMSRRNPFPLCP
- binding [3]: no binding

Results are given in words; binding and its absence hold for the method and conditions named. In cells and extracts the contact can be indirect. For part of these data: A result given as binding can be weak or reduced; the word gives no strength.
